Results are given in words; binding and its absence hold for the method and conditions named. Binding seen in cells or lysates may run through a third protein. Some binding calls cover weakened binding; strength is not graded here.
Target: T1, TANK-binding kinase 1 (TBK1) (human (endogenous in MDA-MB-231)) (UniProt Q9UHD2)
T1 sequence: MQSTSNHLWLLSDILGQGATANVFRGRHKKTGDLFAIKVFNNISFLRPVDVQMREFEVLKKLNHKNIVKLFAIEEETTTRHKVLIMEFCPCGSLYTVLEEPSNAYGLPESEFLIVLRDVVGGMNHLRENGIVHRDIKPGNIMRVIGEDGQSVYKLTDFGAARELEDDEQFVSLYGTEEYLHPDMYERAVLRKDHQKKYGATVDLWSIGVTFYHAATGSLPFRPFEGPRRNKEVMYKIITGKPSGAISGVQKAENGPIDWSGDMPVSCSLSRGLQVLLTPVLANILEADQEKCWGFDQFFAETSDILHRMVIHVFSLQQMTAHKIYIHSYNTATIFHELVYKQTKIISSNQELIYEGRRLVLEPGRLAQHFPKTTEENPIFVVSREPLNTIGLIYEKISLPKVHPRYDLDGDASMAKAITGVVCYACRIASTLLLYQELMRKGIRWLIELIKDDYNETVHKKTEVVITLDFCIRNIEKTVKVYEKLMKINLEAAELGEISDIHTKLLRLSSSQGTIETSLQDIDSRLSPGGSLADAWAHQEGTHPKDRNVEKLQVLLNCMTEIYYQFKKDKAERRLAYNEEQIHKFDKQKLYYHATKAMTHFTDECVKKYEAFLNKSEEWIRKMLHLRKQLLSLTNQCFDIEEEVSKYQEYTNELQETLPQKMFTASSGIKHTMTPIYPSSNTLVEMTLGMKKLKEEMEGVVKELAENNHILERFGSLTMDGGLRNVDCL
Test: co-IP

Chains of the proteins cited; added tags and fusions are not shown.
UniProt Q9Y243: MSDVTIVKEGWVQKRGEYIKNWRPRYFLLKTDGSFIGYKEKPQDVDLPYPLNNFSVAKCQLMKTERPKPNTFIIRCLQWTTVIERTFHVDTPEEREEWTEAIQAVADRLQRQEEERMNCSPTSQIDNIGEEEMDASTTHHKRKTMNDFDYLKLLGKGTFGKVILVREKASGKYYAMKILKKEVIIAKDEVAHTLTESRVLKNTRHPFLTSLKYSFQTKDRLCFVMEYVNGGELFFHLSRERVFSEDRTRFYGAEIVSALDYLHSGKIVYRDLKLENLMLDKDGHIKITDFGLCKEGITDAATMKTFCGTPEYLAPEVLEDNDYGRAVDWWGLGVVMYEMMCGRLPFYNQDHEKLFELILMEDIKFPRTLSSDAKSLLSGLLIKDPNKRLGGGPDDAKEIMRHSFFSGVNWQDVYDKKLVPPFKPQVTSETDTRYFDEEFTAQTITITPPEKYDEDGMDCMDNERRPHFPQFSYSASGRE

Question: For “AKT3 (from UniProt Q9Y243 1-479) (enzyme)”, which binding is on record?
Answer: Its binding is “binds”.

— paper doi:10.1101/2022.01.17.476632
